Results reported in PubChem BioAssay AID493014 (National Center for Advancing Translational Sciences (NCATS), 2011).
This is one part of the list. Further columns of the screen follow, without active or inactive calls. Most of these compounds were active or inconclusive in the main read-out, so they are no random draw. The note in brackets gives the kind of curve behind each potency; many fits are weak.

Test: qHTS Assay to Find Inhibitors of Chronic Active B-Cell Receptor Signaling
Details: ABC-DLBCL IkBa-CBG/CBR reporter, luminescence ratio (green luciferase fused to IkBa over red control in TMD8 lymphoma cells), 4 h
How it was run: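 Concentration-response series (up to 46 uM) were applied to TMD8 dual-reporter cells for 4 h at 37C with doxycycline. Green/red ratio, after filter-overlap correction, defined %Activity; red signal alone was normalised to basal cells and zero luminescence.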

[1] = measured here: CBR red luminescence, cell number
[2] = measured here: IkBa-CBG green luminescence

SMILES	AC50 [1]	AC50 [2]
COc1ccc(N2CCN(C(=O)CN3c4cccc5cccc(c45)S3(=O)=O)CC2)cc1	0.92 µM [rising, full curve, poor fit]	–
Cc1ccc(C(=O)N/C(=C/c2ccco2)C(=O)Nc2cccc(C)c2)cc1	32.6 µM [falling, single point]	–
O/N=C\c1ccccc1Oc1ccc(F)cc1	35.5 µM [rising, single point]	–
O=C(CCl)Nc1cccc2ncccc12	25.9 µM [falling, partial curve, poor fit]	–
Cc1ccc(NC(=O)CCSc2nc(C)cc(C)n2)cc1	20.6 µM [rising, single point]	–
COc1ccc(Cl)cc1NC(=O)N1CCC(C)CC1	17.8 µM [rising, single point]	–
O=C(NCc1ccco1)c1c(F)cccc1Cl	23.1 µM [rising, partial curve, poor fit]	–
Cc1nnc(Nc2ccccc2)n(N)c1=O	29.1 µM [rising, single point]	29.1 µM [falling, single point]
COc1ccccc1CNc1nc2nc3c(c(=O)n2[nH]1)CCC3	6.31 µM [falling, partial curve, poor fit]	–
COc1cc(/C=N/NC(=O)c2ccoc2C)cc(OC)c1O	16.4 µM [falling, partial curve, poor fit]	–
C#Cc1cccc(NC(=O)c2ccc(Cl)cc2Cl)c1	0.447 µM [rising, full curve, poor fit]	–
Cc1cc(Cl)c(OCCCCN2CCOCC2)c(Br)c1	6.51 µM [rising, partial curve, poor fit]	–
CCn1c(SCC(=O)Nc2ccc3c(c2)OCCO3)nnc1-c1cccs1	0.103 µM [falling, full curve, poor fit]	–
Cc1cc(C)c(N(C(=O)c2csnn2)C(C(=O)NC2CCCC2)c2ccncc2)c(C)c1 (stereo not drawn)	11.2 µM [rising, partial curve, poor fit]	–
COc1ccc(-c2nc3sc(CCNC(=O)Cc4ccc(Cl)cc4)c(C)n3n2)cc1	0.562 µM [rising, full curve, poor fit]	–
CCc1cccc(Nc2cc(C)nc3nc(C)nn23)c1	25.9 µM [rising, partial curve, poor fit]	–
O=C(Nc1cccc2ccccc12)N1CCOCC1	6.51 µM [rising, single point]	–
COc1cc(C(=O)NC2CCN(Cc3nnnn3Cc3cccs3)CC2)cc(OC)c1OC	2.06 µM [falling, partial curve, poor fit]	–
Cc1cccc(OCC(=O)N(Cc2cccs2)C2CCS(=O)(=O)C2)c1C (stereo not drawn)	13 µM [falling, partial curve]	–
O=C(Nc1ccc2ccccc2n1)C1CCCCC1	3.98 µM [falling, partial curve]	–
Cc1cccc(NC(=O)c2cnn(-c3ccccc3)c2C)c1C	14.1 µM [falling, partial curve, poor fit]	–

SMILES	AC50 [1]	AC50 [2]
O=C(CCl)N1c2ccccc2CCc2ccccc21	35.5 µM [falling, single point]	–
CC1CCN(CC(=O)n2c3c(c4ccccc42)CCCC3)CC1	20.6 µM [rising, single point]	–
O=C(O)COn1c(-c2ccccc2)nc2ccc([N+](=O)[O-])cc21	20 µM [falling, single point]	–
O=C(Nc1ccc(Cl)c(Cl)c1)Nc1nnc(-c2ccncc2)s1	0.58 µM [rising, full curve, poor fit]	–
CCc1nc(Nc2ccccc2OC)c2oc3ccccc3c2n1	10 µM [falling, partial curve, poor fit]	–
COc1ccc(CN2CCN(C(=O)c3ccc(CNS(=O)(=O)c4ccc(C)cc4)cc3)CC2)c(OC)c1OC	2.51 µM [rising, full curve, poor fit]	–
Cc1cc(C=C2C(=O)c3ccccc3C2=O)c(C)n1C	29.1 µM [falling, partial curve, poor fit]	–
CCOC(=O)C1=C(CC)OC(N)=C(C#N)C1c1ccc(OC)c(C)c1OC (stereo not drawn)	–	18.4 µM [falling, partial curve, poor fit]
COc1ccc(C(=O)Nc2cccc(/C(C)=N\NC(=O)c3ccoc3C)c2)cc1OC	4.47 µM [falling, full curve]	–
O=c1c2cc(Br)ccc2nc(-c2ccccc2)n1O	1.41 µM [falling, full curve]	–
CC(=O)Nc1ccc(Nc2nc3c(S(=O)(=O)c4ccc(C)c(C)c4)nnn3c3ccccc23)cc1	10 µM [falling, partial curve, poor fit]	–
OCCN1CCN(CC(O)COc2ccc(C34CC5CC(CC(C5)C3)C4)cc2)CC1 (stereo not drawn)	12.6 µM [falling, single point]	–
Cn1c(=O)n(C)c2cc(NS(=O)(=O)c3ccc(C(C)(C)C)cc3)ccc21	14.1 µM [rising, partial curve, poor fit]	–
CC(C)C(=O)N(c1cc2sc(=O)oc2c2ccccc12)S(=O)(=O)c1cccs1	29.1 µM [falling, partial curve, poor fit]	–
COc1ccc(NC2=C(NC(C)=O)C(=O)c3ccccc3C2=O)cc1	31.6 µM [rising, partial curve, poor fit]	–
O=C(OCc1ccccn1)c1ccc(COc2ccc3ccccc3c2)o1	11.2 µM [falling, partial curve]	–
O=C(Oc1ccc(N(C(=O)c2ccncc2)S(=O)(=O)c2ccc(F)cc2)cc1)c1ccncc1	5.01 µM [falling, partial curve, poor fit]	–
Cc1nc(NC2CCCC2)sc1C(=O)N(C)C	6.51 µM [rising, single point]	–
Cc1ccc2nc(NCc3ccccc3)[nH]c2c1	3.98 µM [rising, partial curve, poor fit]	22.4 µM [falling, single point]
Cc1ccc(S(=O)(=O)N(C)c2ccc(C(=O)N3CCCCC3)cc2)cc1	29.1 µM [rising, single point]	–

Shown in markdown: entries from further up.

| SMILES | AC50 [1] | AC50 [2] |
| --- | --- | --- |
| COc1ccc(-c2nc3sc(CCNC(=O)Cc4ccc(Cl)cc4)c(C)n3n2)cc1 | 0.562 µM [rising, full curve, poor fit] | – |
| CCc1cccc(Nc2cc(C)nc3nc(C)nn23)c1 | 25.9 µM [rising, partial curve, poor fit] | – |
